For orientation: AC50 means the midpoint of the concentration-response curve, whichever way the signal moves.

The list shows a part of the results. The main result of the screen is listed elsewhere. These columns were measured beside it and carry no call. The list favours compounds with an active or inconclusive main result. The note in brackets gives the kind of curve behind each potency; many fits are weak.

Experimental findings from PubChem BioAssay AID493014 (National Center for Advancing Translational Sciences (NCATS), 2011) are described below.

The nature of this test: qHTS Assay to Find Inhibitors of Chronic Active B-Cell Receptor Signaling. Conditions: ABC-DLBCL IkBa-CBG/CBR reporter, luminescence ratio (green luciferase fused to IkBa over red control in TMD8 lymphoma cells), 4 h. The method, boiled down: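 Compounds up to 46 uM were incubated four hours with TMD8 cells whose green CBG68 luciferase is fused to IkappaBalpha; red CBR luminescence normalised the signal, and concentration-effect curves were fitted to fusion, red and ratio data.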

[1] abbreviates: measured here: CBR red luminescence, cell number.
The mark [2] stands for this setting: measured here: IkBa-CBG green luminescence.

Regarding `Cn1c(=O)n(C)c2cc(N3CCCC3)c(NC(=O)c3cccc(F)c3)cc21`, the AC50 under setting [1] was 3.98 µM [rising, partial curve, poor fit].

With `CN(CCc1ccccn1)C(=O)c1nn2c(C(F)(F)F)cc(-c3ccco3)nc2c1Cl`, the AC50 under setting [1] is 22.4 µM [falling, partial curve]. The same measure, in the same setting: the result for `CCNc1nc(NCC)nc(N/N=C/c2ccc(O)c(OC)c2)n1` reads 7.94 µM [falling, partial curve, poor fit]. Consider `Cc1ncc(CO)c2c1Oc1nc(-c3ccccc3)nc(SCC(=O)N3CCOCC3)c1C2`, for which, under setting [2], the AC50 was 14.1 µM [falling, partial curve, poor fit]. On to `O=C(O)C(=O)/C(=C\c1ccccc1)c1ccc2ccccc2n1`, for which, under setting [1], the AC50 was 3.26 µM [rising, partial curve, poor fit]. With `CC(C)(C)[C@@H]1C=C(C(=O)N2CCN(Cc3ccccc3)CC2)O[C@H](OCc2ccc(CO)cc2)C1`, the AC50 under setting [1] was 5.62 µM [rising, single point]. Take `COC(=O)c1onc(-c2c(OC)cc(OC)cc2OC)c1C(=O)OC`: under setting [1], the AC50 was 29.1 µM [rising, single point].

In the case of `Cc1c(N=C2N=C(NC(=O)NC(C)(C)C)c3ccccc32)c(=O)n(-c2ccccc2)n1C`, the AC50 under setting [1] is 3.16 µM [rising, full curve]. On the same count and under the same terms, the figure for `N=c1c(S(=O)(=O)c2ccccc2)cc2c(=O)n3ccccc3nc2n1Cc1cccnc1` is 1.16 µM [falling, full curve, poor fit]; for `O=C(O)CCN1C(=O)/C(=C\c2ccncc2)SC1=S` it is 1 µM [falling, full curve]; for `CCOC(=O)c1c(C)[nH]c(O)c1C=Nc1ccc(C(F)(F)F)cc1` it is 0.891 µM [rising, full curve, poor fit].

Turning to `CC1=N/C(=C\c2ccc([N+](=O)[O-])cc2)C(=O)N1c1ccc(F)cc1F`, the AC50 under setting [1] was 11.2 µM [falling, partial curve]. As for `Nc1nonc1-c1nc2ccccc2n1Cc1ccccc1`, the AC50 under setting [1] is 5.8 µM [rising, full curve, poor fit].

With `CC(C)CN(Cc1cc(=O)oc2cc(-c3ccccc3)c(O)cc12)CC(C)C`, the AC50 under setting [1] is 11.2 µM [falling, single point]. `O=C(CSc1nnc(Cn2nnc3ccccc32)o1)N(Cc1ccc(Cl)cc1)c1ccccc1`: under setting [1], the AC50 is 23.1 µM [falling, partial curve]. On the same count and under the same terms, the result for `COc1cccc(N(CC(=O)NC2CCCC2)C(=O)Cn2nnc(-c3ccc(C)cc3)n2)c1` reads 8.2 µM [falling, partial curve, poor fit]; that for `CC1(C)N=C(c2cccc(F)c2)C(=O)N1`, 20 µM [rising, partial curve, poor fit]; that for `S=C(NCc1cccs1)Nc1cccc(Cl)c1`, 0.103 µM [rising, full curve, poor fit]. In the case of `COc1ccc(OC)c(NC(=O)c2cc(-c3cc(C)c(C)cc3O)n[nH]2)c1`, under setting [1], the AC50 was 6.31 µM [falling, partial curve, poor fit].

For `N#Cc1ccc(Sc2nc3ccccc3[nH]2)cc1C#N`, under setting [1], the AC50 was 35.5 µM [falling, single point].

With `Cc1ccc(C(=O)NCC(=O)OCC(=O)Nc2ncc(C(F)(F)F)cc2Cl)cc1`, under setting [1], the AC50 is 1.64 µM [falling, partial curve, poor fit]. Consider `CC(=O)Nc1ccc(-c2nc(C)c(C(C)=O)n2O)cc1`, for which the AC50 under setting [1] is 9.2 µM [falling, partial curve].

Regarding `CCc1cc2c(-c3ccccc3)cc(=O)oc2cc1OCC(C)=O`, under setting [1], the AC50 is 6.31 µM [rising, partial curve, poor fit]. Same read-out and setting: the result for `Cc1cc(OC(=O)c2ccccc2Br)cc(=O)n1C` reads 7.94 µM [falling, partial curve]; that for `COc1cc(CNCc2ccccn2)ccc1OCc1cccc(Cl)c1`, 5.62 µM [rising, single point]; that for `OCc1nc2ccccc2n1CC(O)Cn1ccc2ccccc21` (stereo not given), 0.461 µM [falling, partial curve, poor fit]. Regarding `O=C(OCn1ncc(Br)c(Br)c1=O)c1ccc(F)cc1`, the AC50 is 5.17 µM [falling, full curve, poor fit] under setting [1] and 5.17 µM [rising, full curve, poor fit] under setting [2].

In the case of `CCOC(=O)N1CCc2c(sc(NCc3cccc(F)c3)c2C(=O)Nc2ccc(OC)cc2)C1`, the AC50 under setting [1] is 7.08 µM [falling, full curve, poor fit].

`COc1ccc(-n2cc(-c3ccccc3)nc2SCC(=O)Nc2ccccc2C)cc1`: the AC50 under setting [1] was 3.55 µM [rising, full curve, poor fit]. Consider `Cc1ccccc1OCCOc1ccccc1C=C(C#N)C#N`, for which the AC50 under setting [2] was 23.1 µM [falling, single point]. As to `COc1ccc(NC(=O)Nc2cccs2)cc1OC`, the AC50 under setting [1] is 10.3 µM [rising, partial curve]. On to `CC(=O)c1ccc(NC(=O)COC(=O)c2ccccc2Sc2ccccc2C#N)cc1`, for which the AC50 under setting [1] is 23.1 µM [rising, partial curve, poor fit]. Turning to `CC1CN(CCS(=O)(=O)c2cc(Cl)ccc2Cl)CC(C)O1` (stereo not given), the AC50 by setting is: under setting [1], 35.5 µM [rising, single point]; under setting [2], 35.5 µM [falling, single point]. On to `COc1cccc(Cn2c(Oc3cccc(C)c3)nc3c2c(=O)n(C)c(=O)n3C)c1`, for which the AC50 under setting [1] was 16.4 µM [rising, single point]. As for `CC(C)(C)n1cnc2cc(NS(=O)(=O)c3ccc(Br)cc3)ccc21`, the concentration at half-maximal activity (AC50) under setting [1] was 1.84 µM [falling, partial curve, poor fit].

Consider `NC(=O)c1nc[nH]c1C(=O)Nc1cccc(C(F)(F)F)c1`, for which the AC50 under setting [1] was 0.092 µM [rising, full curve, poor fit].

For `O=C1NC(=S)S/C1=C\c1ccc(SCc2ccco2)o1`, the AC50 under setting [1] was 0.58 µM [rising, partial curve, poor fit]. The same measure, in the same setting: the result for `COc1ccc(-c2nc(N)ncc2-c2ccc(OC)c(OC)c2)c(O)c1` reads 35.5 µM [falling, single point]; that for `COc1ccc(/C=C/C(=O)Nc2cccc(S(=O)(=O)NC3=NCCCCC3)c2)c(OC)c1`, 25.9 µM [falling, single point]; that for `c1ccc(Cn2cc(CNc3ccccc3)nn2)cc1`, 2.51 µM [rising, full curve, poor fit].

As for `O=C(c1nc2ccc(Cl)cn2c1CN1CCC[C@H]1CO)N1CCCCCCC1`, the concentration at half-maximal activity (AC50) under setting [1] was 3.55 µM [rising, partial curve, poor fit].

As for `CCC1C(O)=C(c2ccccn2)C(=N)N1c1ccccc1` (stereo not given), the AC50 under setting [1] is 1.58 µM [falling, full curve].

As to `COc1cc(SC)ccc1C(=O)OC(C)C(=O)NC1CCCC1` (stereo not given), the AC50 under setting [1] is 35.5 µM [falling, partial curve, poor fit]. Regarding `Cc1cc(=O)oc2cc(NC(=S)NCc3cccnc3)ccc12`, under setting [1], the AC50 was 2 µM [rising, full curve, poor fit].

On to `CC(=O)N[C@@H](Cc1c[nH]c2ccccc12)C(=O)OCC(=O)NCc1ccc2c(c1)OCO2`, for which the AC50 under setting [1] is 35.5 µM [rising, single point].

Turning to `CS(=O)(=O)Cc1cccc(C(=O)NC2CCSc3ccccc32)c1` (stereo not given), the AC50 under setting [1] is 7.94 µM [falling, partial curve, poor fit]. On the same count and under the same terms, the result for `N#C/C(=C\c1c(N2CCOCC2)nc2ccccn2c1=O)S(=O)(=O)c1ccccc1` reads 6.31 µM [falling, full curve, poor fit].

With `COc1cccc2[nH]c3c(Cl)ncnc3c12`, the AC50 under setting [2] was 4.11 µM [rising, full curve]. Turning to `CCOC(=O)c1c(NC(=O)c2ccccc2C)sc2c1CC(C)(C)OC2`, under setting [1], the AC50 is 0.00461 µM [rising, full curve, poor fit].

On to `O=C(COC(=O)C1CC1)Nc1nc(-c2ccc(F)c(F)c2)cs1`, for which the AC50 under setting [1] was 9.2 µM [rising, partial curve, poor fit]. In the case of `CCOC(=O)c1c(C)[nH]c(C)c1C(=O)CSc1nc2ccccc2c(=O)n1-c1ccc(Cl)cc1`, the AC50 under setting [1] was 32.6 µM [falling, partial curve, poor fit].

As for `O=C(N/N=C/c1ccc[nH]1)c1ccccc1[N+](=O)[O-]`, the AC50 under setting [1] was 20.6 µM [falling, partial curve, poor fit].

Regarding `COc1ccccc1NC(=O)NCCc1ccccc1`, the AC50 under setting [1] was 35.5 µM [falling, single point]. On to `CCc1n[nH]c(=S)n1/N=C/c1cccc2ccccc12`, for which, under setting [1], the AC50 was 10 µM [rising, partial curve, poor fit]. Turning to `CCCCN(CC(=O)NC(C)(C)C)C(=O)C(=O)Nc1ccc2c(c1)OCCO2`, the AC50 under setting [1] is 25.1 µM [falling, single point].

For `C=CCn1c(-c2csc(-c3ccc(OC)c(OC)c3)n2)n[nH]c1=S`, the AC50 under setting [1] is 3.16 µM [rising, full curve]. Same read-out and setting: the result for `O=C(Nc1ccc(-c2nc3ccccc3o2)cc1)c1cc(-n2cnnc2)ccc1Cl` reads 0.731 µM [rising, full curve, poor fit]. Regarding `O=C(NC(=S)NCCc1ccccc1)C1CCCCC1`, the concentration at half-maximal activity (AC50) under setting [1] is 0.146 µM [rising, full curve, poor fit].

Consider `CN1CCSc2ccc(C(=O)Nc3cc(F)ccc3F)cc21`, for which the AC50 under setting [1] was 11.2 µM [falling, partial curve].

On to `CCOC(=O)N1CCN(S(=O)(=O)c2ccc(OC)c(Cl)c2)CC1`, for which the AC50 under setting [1] is 4.11 µM [falling, single point]. With `COc1ccc(C(=O)Nc2ccccc2C(=O)NCC2CCCO2)cc1` (stereo not given), the AC50 under setting [1] is 35.5 µM [rising, single point]. With `COC(=O)c1ccc2[nH]c3c(c2c1)CC(C)CC3` (stereo not given), under setting [1], the AC50 was 14.1 µM [rising, partial curve]. Same read-out and setting: the result for `COc1ccc(C(=O)CSc2nc3c(c(=O)n(C)c(=O)n3C)n2C)cc1` reads 22.4 µM [rising, single point].
